Values of other authors in US5753636A, “Injection solution for intramuscular and subcutaneous administration to animals” (priority 1993, dated 1998).

System: injection site
Settings: in vivo; cited from earlier work

## CC(=O)N(C)C [N,N-dimethylacetalide]
  local tolerability / irritation: highly irritant and have haemolytic effects
